Laboratory results published in article PMC9170038, “Crowdsourced RNA design discovers diverse, reversible, efficient, self-contained molecular switches”.
Tags and fusion partners may be left off the protein sequences shown.

Target: T1, MS2 coat protein, dlFG mutant del68-81insG (Escherichia phage MS2) (UniProt P03612)
T1 sequence (looked up, limits assumed): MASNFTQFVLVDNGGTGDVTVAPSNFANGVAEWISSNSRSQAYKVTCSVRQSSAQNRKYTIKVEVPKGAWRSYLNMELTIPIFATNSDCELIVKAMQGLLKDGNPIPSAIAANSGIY
Assay: binding assay
Conditions: 4 mM Mg2+, RNA-MaP array, 100 mM Tris-HCl pH 7.5, 80 mM KCl, 4 mM MgCl2, 0.1 mg/mL BSA, 1 mM DTT, 0.01 mg/mL yeast tRNA, 0.01% Tween-20, protein 1.5 nM to 3 uM, 37 C (Table S3), purified recombinant protein

[1] = no ligand, variant of MS2 control

Sequence: UAGACACUUACAGGAUAUAGGGCAGAGGGUGCCCUAGAAGGGUGAACAUGAGGAUCACCCAUGUAUGUGUCUGAUUAGAAGGCA [Eterna 6148599 (Same State NG 1)]
- Kd (FMN 200 uM): > 3000 nM

Sequence: CACGGACGAGUGGAUCACCCUCGUAAUAACCGAGGACCGGUACGGCCGCCACUCGAAAACCGUGACCUGUACGAAAAGUGCAGGA [Eterna 7707630 (Same State - Tryptophan A)]
- Kd [1]: > 3000 nM

Sequence: AACCAACAUGAGGAUCACCCAUGUUCUCAGACGUUUAGGUCACAGGAUAUUCGUGCUUGUGGGACGGAGAAGGGUGCCUCGCUG [Eterna 6149060 (Same State NG 3)]
- Kd (no ligand): > 3000 nM

Sequence: UCGUUUUAGUCGGCCGCCACUGAACUCAUGUUCAACAUGAGGAUCACCCAUGUACCUUAUUUUAACAGGACCGGGACGUAAUAGA [Eterna 7612119 (Exclusion - Tryptophan B)]
- Kd (L-tryptophan 2.4 mM): > 3000 nM

Sequence: GUAUGAGCGAUAGGAUAUACUGAGAUUGAAUGGGUAGAAGGAUCUCUUGUGAGGAAGACAUGAGGAUCACCCAUGUCACGGGCC [Eterna 6123862 (Same State NG 1)]
- Kd (no ligand): > 3000 nM

Sequence: CAUGUCCUCACAGGAUAUGCUGGACUUUGUCCAGCAGAAGGGUGAUAACAUGAGGAUCACCCAUGUGGACAUGAUAUAUUUAAU [Eterna 6130530 (Same State NG 1)]
- Kd (no ligand): > 3000 nM

Sequence: UCGUAUACACAAGGAUAUCGAUGGCUUGUAGAUGCUACAUGAGGAUCACCCAUGUUUUUAUAUUGUGAGAAGGUGUAGUGUCGU [Eterna 6124273 (Same State NG 2)]
- Kd (no ligand): > 3000 nM

Sequence: AAAAUCACAUGAGGAUCACCCAUGUACCGAGUUAAGGCUACAUAGGAUAUGACAAGUAUAGCUUGUCAGAAGGGUGAGUCUCGC [Eterna 6149019 (Same State NG 3)]
- Kd (FMN 200 uM): > 3000 nM

Sequence: GUGGUUCUCGUAGGAUAUGUAGGAUAUGCCUACAUGAGGAUCACCCAUGUUCGCAUGGCAGAAGGACAGAAGGACGAUCACCAG [Eterna 6153683 (Same State NG 2)]
- Kd (no ligand): > 3000 nM

Sequence: CACGGACGAGUGGAUCACCCUUGUAAUAACCGAGGACCGGUACGGCCGCCACUCGAAAACCGUGACCUGUACGAAAAGUGCAGGA [Eterna 7707632 (Same State - Tryptophan A)]
- Kd [1]: > 3000 nM
